Measurements: publication PMC3688503 (2013)
No constants are given. Whether binding was seen depends on the method and setting. In cells and extracts the contact can be indirect. Some binding calls cover weakened binding; strength is not graded here. For some of these results: Tags and fused reporters may be left off the sequences shown. Values belong to the binder of their own block, whether it stands above or below them.

Key:
[1] = biological target: T1, myotubularin, endogenous in murine skeletal muscle (tibialis anterior) (mouse (endogenous in tibialis anterior muscle)) (UniProt Q9Z2C5); experiment: co-IP; endogenous proteins, fresh murine tibialis anterior muscle lysate in co-IP buffer with 0.05% SDS; immunoprecipitated with anti-myotubularin monoclonal 1G1, 4 C; last wash with 300 mM NaCl; controls IgG and empty beads
T1 sequence: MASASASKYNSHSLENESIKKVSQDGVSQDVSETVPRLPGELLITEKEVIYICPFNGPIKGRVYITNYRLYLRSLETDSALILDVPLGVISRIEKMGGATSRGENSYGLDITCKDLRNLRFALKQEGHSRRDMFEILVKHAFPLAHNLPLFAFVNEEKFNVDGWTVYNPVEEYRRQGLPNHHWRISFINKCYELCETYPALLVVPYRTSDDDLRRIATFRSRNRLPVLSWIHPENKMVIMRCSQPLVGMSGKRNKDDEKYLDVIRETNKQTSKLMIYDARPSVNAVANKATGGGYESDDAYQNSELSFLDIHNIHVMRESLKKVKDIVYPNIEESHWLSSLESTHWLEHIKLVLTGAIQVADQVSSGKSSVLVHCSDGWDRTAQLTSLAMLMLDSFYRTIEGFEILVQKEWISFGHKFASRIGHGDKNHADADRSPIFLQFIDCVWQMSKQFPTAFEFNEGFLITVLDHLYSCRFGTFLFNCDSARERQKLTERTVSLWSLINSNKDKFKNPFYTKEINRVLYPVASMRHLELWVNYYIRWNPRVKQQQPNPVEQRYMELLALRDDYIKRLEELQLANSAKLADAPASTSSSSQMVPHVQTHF

[2] = biological target: T2, MTM1-GST (human myotubularin full-length protein as a GST fusion protein) (human) (UniProt Q13496); experiment: pull-down; MTM1-GST or GST bound to glutathione beads, incubated with in vitro translated MTMR12-B10 diluted in Co-IP buffer (50 mM Tris-Cl pH 7.5, 100 mM NaCl, 5 mM EDTA, 5 mM EGTA, 1 mM DTT, 0.5% Triton X-100, 2 mM PMSF); only the target purified
T2 sequence: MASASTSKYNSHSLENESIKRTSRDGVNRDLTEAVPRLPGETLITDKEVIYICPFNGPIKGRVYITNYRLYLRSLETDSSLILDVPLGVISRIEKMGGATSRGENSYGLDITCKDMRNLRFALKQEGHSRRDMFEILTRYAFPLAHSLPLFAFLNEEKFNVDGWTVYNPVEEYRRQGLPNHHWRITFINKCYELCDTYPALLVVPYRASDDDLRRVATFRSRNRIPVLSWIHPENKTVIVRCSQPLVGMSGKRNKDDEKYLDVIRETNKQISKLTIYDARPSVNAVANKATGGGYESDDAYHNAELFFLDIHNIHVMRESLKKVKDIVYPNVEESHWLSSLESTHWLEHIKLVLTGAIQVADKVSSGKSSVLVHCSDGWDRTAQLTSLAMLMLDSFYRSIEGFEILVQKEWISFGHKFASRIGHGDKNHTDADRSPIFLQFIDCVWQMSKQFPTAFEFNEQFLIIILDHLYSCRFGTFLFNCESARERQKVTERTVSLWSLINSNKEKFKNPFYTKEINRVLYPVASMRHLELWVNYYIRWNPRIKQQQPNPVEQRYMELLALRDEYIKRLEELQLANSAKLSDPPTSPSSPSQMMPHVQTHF

[3] = biological target: T3, MTM1 (myotubularin, over-expressed from pcDNA3.1-MTM1) (human) (UniProt Q13496); experiment: co-IP; MTM1 and MTMR12-B10 over-expressed in Cos1 cells (methods: Cos7); extracts immunoprecipitated with anti-myotubularin monoclonal 1G1; controls IgG and empty beads
T3 sequence: T2 sequence

[4] = biological target: T4, wild-type MTM1-B10 fusion protein (human) (UniProt Q13496); experiment: co-IP; wild-type or mutant MTM1-B10 co-expressed with MTMR12-GFP in Cos1 cells (text and methods: Cos7); immunoprecipitated with anti-B10 tag antibody (text: a myotubularin specific antibody)
T4 sequence: T2 sequence

binding [1]: binds
B1: MTMR12, endogenous in murine skeletal muscle (tibialis anterior) (protein, UniProt Q80TA6 1-747)
chain: MLGKGGVGGGGGTKAPKPSFVSYVRPEEIHTDEKEVTEKEVTLHLLPGEQLLCEASTVLKYVQEDSCQRGVYGRLVCTDFKISFLGDEDSALDNGGEAQFKNKIIGVNDVPLHCVDQIYGVFDEKKKPLFGQLKKYPEKLVIHCKDLRVLHFCLRYTKEEEVKRIVSGIIHHTQSPKLLKRLFLFSYAAAVHGTATDSRNCTVMFDTPKDWCWELERTKGSVKYRTVSVNEGYRVSDRLPAYFVVPTPLPEDDVRRFQGHGIPIWCWSCHNGSALLKMSALPKEQDDGALQVQKSFLDGIYKTIHRPPYEMVKTEDLSSNFLSLQEIQSAYCKFKQLFLIDNSSEFWDTDIKWFSLLESSSWLDIIRRCLKKAIEITECLEAQNVNVLLLEENASDLCCLLSSLVQVMMDAHCRTRTGFQSLIQKEWVMGGHSFLDRCNHLHQSDKEEVPIFLLFLDCVWQLVHQYPPAFEFTETYLTVLSDSLYIPIFSTFFFNSPHQKDTNMGRENLDAQSKPLTLLTVWDWSVQFEPKAQTLLRNPLYVEKPKLDRGQQKGSRFKHQRQLSLPLTQSKSSPKRGFFREETDHLIKNLLGKRISKLINSSDDLQDSSREFYDSWHSKPTDYHGLLLPHIEGPEIKVWAQRYLRWIPEAQILGGGRVATMGKLLEMMEEVQSLQEKIEARHHRQEAVHAEAPGLLRNSVRLSSLFPFALLQRHSAKPVLPTSGWKALGGEDDLAKREDEFVDLGDV

binding [2]: binds
B2: MTMR12-B10 (in vitro synthesized MTMR12 protein with a B10 tag) (protein, UniProt Q9C0I1 1-747)
chain: MLGKGVVGGGGGTKAPKPSFVSYVRPEEIHTNEKEVTEKEVTLHLLPGEQLLCEASTVLKYVQEDSCQHGVYGRLVCTDFKIAFLGDDESALDNDETQFKNKVIGENDITLHCVDQIYGVFDEKKKTLFGQLKKYPEKLIIHCKDLRVFQFCLRYTKEEEVKRIVSGIIHHTQAPKLLKRLFLFSYATAAQNNTVTDPKNHTVMFDTLKDWCWELERTKGNMKYKAVSVNEGYKVCERLPAYFVVPTPLPEENVQRFQGHGIPIWCWSCHNGSALLKMSALPKEQDDGILQIQKSFLDGIYKTIHRPPYEIVKTEDLSSNFLSLQEIQTAYSKFKQLFLIDNSTEFWDTDIKWFSLLESSSWLDIIRRCLKKAIEITECMEAQNMNVLLLEENASDLCCLISSLVQLMMDPHCRTRIGFQSLIQKEWVMGGHCFLDRCNHLRQNDKEEVPVFLLFLDCVWQLVHQHPPAFEFTETYLTVLSDSLYIPIFSTFFFNSPHQKDTNMGREGQDTQSKPLNLLTVWDWSVQFEPKAQTLLKNPLYVEKPKLDKGQRKGMRFKHQRQLSLPLTQSKSSPKRGFFREETDHLIKNLLGKRISKLINSSDELQDNFREFYDSWHSKSTDYHGLLLPHIEGPEIKVWAQRYLRWIPEAQILGGGQVATLSKLLEMMEEVQSLQEKIDERHHSQQAPQAEAPCLLRNSARLSSLFPFALLQRHSSKPVLPTSGWKALGDEDDLAKREDEFVDLGDV

binding [3]: binds
B3: MTMR12-B10 (over-expressed in Cos1 cells) (protein, UniProt Q9C0I1 1-747)
chain: B2 chain

binding [4]: binds
B4: wild-type MTMR12-GFP protein (protein, UniProt Q9C0I1 1-747)
chain: B2 chain
